Measurements taken from the supplement of paper PMC10849652.
This is one part of the list.

The chains behind the UniProt entries cited, without tags or fusion partners. Where a name states a change or a piece, a line headed by the entry shows the natural chain unless it says otherwise.
UniProt Q92598: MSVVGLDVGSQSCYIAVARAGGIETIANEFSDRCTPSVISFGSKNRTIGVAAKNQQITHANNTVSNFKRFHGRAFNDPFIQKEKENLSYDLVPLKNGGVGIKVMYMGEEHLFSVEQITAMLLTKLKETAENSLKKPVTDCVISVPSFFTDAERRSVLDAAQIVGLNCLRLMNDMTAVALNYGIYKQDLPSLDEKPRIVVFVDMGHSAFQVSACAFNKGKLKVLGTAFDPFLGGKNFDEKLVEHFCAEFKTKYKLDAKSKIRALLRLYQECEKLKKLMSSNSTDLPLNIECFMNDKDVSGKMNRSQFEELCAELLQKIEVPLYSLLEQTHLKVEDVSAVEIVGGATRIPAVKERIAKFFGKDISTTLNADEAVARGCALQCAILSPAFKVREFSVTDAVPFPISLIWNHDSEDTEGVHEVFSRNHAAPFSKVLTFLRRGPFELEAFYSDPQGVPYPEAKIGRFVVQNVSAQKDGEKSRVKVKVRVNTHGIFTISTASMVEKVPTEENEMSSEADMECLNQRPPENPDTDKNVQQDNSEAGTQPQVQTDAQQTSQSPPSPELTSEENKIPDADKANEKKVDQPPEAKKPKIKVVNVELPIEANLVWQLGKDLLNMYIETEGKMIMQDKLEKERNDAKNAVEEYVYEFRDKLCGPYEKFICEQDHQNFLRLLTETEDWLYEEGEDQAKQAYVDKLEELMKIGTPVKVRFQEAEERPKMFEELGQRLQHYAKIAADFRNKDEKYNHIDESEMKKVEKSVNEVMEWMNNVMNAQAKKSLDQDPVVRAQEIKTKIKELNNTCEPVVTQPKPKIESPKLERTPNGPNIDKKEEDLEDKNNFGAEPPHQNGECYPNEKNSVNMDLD
UniProt Q70UQ0: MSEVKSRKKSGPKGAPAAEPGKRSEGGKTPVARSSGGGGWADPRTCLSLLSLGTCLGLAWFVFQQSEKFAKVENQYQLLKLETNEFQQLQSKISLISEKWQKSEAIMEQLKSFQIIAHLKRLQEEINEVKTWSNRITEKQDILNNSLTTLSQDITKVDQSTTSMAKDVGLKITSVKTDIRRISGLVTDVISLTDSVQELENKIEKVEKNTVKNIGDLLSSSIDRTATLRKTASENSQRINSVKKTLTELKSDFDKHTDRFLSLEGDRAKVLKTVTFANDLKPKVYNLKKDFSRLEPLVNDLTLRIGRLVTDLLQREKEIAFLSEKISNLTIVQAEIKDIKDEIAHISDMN
UniProt A1L0T0: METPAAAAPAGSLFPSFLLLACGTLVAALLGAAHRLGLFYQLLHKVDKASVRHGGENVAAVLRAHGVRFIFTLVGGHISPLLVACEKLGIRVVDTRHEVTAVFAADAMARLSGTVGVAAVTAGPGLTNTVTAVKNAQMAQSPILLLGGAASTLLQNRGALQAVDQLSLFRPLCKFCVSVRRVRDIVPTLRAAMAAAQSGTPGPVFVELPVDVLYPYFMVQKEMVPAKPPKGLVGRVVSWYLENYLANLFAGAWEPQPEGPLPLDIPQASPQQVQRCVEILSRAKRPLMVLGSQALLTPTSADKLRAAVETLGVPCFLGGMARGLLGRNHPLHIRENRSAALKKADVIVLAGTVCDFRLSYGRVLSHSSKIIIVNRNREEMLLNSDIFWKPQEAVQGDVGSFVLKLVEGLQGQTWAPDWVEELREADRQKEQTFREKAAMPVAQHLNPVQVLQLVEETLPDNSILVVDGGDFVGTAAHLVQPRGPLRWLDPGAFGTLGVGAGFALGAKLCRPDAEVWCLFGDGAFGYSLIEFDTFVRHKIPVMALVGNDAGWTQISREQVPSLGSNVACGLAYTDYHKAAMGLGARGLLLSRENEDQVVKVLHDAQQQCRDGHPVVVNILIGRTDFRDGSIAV
UniProt P78318: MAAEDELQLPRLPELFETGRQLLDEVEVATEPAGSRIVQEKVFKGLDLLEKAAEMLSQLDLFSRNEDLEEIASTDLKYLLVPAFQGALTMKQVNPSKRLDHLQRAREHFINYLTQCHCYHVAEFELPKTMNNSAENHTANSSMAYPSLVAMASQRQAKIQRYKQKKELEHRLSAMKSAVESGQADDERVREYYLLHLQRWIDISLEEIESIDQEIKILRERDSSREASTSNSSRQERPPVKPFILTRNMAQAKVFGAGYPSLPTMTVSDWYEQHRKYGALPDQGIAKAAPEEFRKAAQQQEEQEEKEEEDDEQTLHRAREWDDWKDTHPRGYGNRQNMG
UniProt Q6UWB1, whole entry, looked up: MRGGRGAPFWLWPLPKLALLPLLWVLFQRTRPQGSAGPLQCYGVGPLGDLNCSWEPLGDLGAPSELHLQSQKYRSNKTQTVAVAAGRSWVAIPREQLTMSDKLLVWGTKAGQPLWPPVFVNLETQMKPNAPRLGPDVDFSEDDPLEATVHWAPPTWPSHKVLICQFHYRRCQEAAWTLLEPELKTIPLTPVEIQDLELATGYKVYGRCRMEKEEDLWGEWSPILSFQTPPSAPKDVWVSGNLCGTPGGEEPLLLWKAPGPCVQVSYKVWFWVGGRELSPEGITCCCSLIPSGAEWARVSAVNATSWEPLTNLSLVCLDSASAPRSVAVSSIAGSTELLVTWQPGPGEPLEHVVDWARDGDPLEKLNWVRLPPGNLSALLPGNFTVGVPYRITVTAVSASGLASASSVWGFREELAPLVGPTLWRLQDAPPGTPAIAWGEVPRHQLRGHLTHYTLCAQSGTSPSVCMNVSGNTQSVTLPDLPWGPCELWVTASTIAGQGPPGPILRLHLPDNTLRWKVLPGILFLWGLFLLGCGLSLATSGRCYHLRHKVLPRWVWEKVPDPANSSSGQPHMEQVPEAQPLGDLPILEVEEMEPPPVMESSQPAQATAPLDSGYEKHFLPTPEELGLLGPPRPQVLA
UniProt O14732: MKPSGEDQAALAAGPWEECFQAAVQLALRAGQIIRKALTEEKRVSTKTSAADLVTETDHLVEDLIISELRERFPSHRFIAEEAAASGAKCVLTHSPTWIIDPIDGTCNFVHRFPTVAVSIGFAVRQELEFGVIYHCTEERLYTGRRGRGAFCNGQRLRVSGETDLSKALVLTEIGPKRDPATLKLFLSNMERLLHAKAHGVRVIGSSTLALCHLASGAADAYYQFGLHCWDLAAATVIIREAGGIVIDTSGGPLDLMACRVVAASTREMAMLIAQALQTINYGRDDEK
UniProt Q9P2X3: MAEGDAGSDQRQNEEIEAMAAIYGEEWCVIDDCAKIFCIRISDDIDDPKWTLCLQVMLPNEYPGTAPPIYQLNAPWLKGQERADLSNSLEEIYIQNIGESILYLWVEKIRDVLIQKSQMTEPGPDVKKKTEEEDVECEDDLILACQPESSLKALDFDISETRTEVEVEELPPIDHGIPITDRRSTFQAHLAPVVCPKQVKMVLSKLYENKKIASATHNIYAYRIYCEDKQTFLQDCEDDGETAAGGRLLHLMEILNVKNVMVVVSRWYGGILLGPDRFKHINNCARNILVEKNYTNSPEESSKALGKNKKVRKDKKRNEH
UniProt Q14773: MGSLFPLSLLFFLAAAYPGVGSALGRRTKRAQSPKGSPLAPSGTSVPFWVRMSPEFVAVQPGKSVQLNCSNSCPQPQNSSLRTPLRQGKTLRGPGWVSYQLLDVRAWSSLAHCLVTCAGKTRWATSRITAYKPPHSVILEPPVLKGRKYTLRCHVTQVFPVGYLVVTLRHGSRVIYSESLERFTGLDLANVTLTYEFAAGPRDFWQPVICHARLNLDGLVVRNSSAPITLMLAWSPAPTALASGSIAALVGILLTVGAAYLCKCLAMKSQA
UniProt O15357: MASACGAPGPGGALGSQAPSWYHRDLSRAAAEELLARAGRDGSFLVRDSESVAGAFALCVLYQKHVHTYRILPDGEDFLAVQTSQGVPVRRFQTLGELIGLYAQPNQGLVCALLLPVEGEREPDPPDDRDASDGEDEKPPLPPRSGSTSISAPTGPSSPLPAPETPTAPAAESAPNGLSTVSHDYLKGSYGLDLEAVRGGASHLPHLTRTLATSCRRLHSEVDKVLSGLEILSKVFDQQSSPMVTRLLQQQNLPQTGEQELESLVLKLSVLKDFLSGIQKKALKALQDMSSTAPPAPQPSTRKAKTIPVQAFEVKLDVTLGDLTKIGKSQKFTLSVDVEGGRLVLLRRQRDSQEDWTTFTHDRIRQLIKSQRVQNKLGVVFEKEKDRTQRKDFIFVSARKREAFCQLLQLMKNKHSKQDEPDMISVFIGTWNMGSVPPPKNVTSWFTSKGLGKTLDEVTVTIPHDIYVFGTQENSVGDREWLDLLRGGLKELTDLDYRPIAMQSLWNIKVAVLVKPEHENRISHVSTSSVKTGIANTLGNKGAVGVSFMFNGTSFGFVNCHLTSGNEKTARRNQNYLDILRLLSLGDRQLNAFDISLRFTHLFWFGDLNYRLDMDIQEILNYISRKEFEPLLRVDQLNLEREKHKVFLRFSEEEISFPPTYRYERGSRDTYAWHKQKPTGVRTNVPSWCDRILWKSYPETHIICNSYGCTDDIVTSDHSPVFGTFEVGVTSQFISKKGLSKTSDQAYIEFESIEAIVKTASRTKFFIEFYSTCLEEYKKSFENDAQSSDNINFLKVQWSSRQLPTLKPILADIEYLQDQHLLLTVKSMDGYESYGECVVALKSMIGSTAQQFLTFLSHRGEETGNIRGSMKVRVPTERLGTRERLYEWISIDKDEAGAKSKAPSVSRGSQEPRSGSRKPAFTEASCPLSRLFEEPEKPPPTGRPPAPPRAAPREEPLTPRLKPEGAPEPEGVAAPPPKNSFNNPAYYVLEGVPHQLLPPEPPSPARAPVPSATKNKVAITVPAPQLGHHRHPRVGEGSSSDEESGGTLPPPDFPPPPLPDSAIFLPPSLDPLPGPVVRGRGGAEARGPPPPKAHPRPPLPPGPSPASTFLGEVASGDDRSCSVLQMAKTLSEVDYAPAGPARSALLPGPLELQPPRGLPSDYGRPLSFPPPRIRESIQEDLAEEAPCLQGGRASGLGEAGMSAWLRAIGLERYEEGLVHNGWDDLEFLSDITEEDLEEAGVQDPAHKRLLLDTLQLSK
UniProt P41134: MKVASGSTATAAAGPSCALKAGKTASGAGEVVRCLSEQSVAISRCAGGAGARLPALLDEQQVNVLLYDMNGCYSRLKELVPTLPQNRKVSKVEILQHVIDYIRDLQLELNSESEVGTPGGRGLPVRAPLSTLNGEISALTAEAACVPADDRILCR
UniProt Q9UK53: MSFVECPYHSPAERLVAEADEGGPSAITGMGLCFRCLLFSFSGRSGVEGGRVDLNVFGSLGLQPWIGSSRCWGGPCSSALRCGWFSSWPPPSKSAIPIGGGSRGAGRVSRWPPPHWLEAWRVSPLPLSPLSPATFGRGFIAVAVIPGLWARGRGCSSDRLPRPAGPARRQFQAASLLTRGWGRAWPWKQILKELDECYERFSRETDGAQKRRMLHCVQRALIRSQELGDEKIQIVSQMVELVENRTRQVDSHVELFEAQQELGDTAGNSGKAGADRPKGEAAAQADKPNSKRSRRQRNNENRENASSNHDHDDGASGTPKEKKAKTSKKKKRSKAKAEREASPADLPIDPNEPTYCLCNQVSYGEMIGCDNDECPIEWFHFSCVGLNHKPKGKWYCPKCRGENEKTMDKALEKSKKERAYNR
UniProt P20839, whole entry, looked up: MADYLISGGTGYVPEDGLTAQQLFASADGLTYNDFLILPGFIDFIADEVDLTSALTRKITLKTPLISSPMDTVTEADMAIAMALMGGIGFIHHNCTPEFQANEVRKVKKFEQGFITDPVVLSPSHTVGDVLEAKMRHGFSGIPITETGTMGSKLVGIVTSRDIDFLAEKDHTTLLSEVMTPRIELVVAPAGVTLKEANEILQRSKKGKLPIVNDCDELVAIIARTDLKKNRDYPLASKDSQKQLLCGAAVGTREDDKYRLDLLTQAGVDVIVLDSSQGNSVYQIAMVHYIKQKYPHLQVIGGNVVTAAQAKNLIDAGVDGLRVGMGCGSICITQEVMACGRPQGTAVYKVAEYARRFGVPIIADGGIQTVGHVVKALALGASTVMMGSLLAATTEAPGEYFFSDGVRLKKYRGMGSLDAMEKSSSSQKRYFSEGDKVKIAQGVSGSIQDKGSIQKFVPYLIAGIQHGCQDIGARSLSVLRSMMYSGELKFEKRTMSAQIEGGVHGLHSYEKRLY
UniProt Q12894: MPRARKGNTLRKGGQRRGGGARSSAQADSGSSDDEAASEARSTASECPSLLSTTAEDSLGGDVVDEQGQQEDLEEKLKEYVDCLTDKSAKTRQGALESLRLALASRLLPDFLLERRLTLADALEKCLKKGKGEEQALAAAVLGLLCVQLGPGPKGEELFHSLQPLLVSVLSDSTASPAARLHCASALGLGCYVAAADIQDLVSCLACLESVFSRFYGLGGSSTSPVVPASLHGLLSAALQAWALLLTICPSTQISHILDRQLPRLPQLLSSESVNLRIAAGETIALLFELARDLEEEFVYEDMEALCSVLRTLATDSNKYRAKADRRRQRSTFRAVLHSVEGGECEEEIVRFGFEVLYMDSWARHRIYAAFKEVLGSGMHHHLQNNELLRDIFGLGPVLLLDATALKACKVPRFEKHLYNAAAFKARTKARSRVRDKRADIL

What was measured:
Experiment in all cases: log2 fold change, soluble protein after heating vs DMSO (PISA); higher = thermal stabilisation; K562 lysate, 10 uM; active = over 0.2 and 3.5 SD of the protein, either way, in both replicates (recomputed)
alvocidib = compound: CN1CC[C@H](c2c(O)cc(O)c3c(=O)cc(-c4ccccc4Cl)oc23)[C@H](O)C1 [alvocidib]
Method in brief: (§1)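 Following dounce homogenisation of K562 pellets in PBS pH 7.4 with 1 mM MgCl2, crude extract at 1 mg/mL protein was incubated for 30 min with 10 μM compound. Aliquots were then heated for 3 min over 48°C-58°C and pooled, NP-40 was added to 0.5% at 4°C, and soluble protein was recovered as the supernatant at 21,000xg for 90 min. Channel-sum-equalised TMTpro 16plex LC-MS/MS quantified this protein. Each value, from duplicates, is a log-two fold change in thermal stability relative to solvent controls.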

Tubastatin A = compound: CN1CCc2c(c3ccccc3n2Cc2ccc(C(=O)NO)cc2)C1 [Tubastatin A]
Method in brief: as §1

[1] = compound: CNC(=O)C1=CC=CC=C1NC2=NC(=NC=C2Cl)NC3=C(C=C(C=C3)N4CCOCC4)OC
Method in brief: as §1

defactinib = compound: CNC(=O)c1ccc(Nc2ncc(C(F)(F)F)c(NCc3nccnc3N(C)S(C)(=O)=O)n2)cc1 [defactinib]
Method in brief: as §1

[2] = compound: CNc1nc(-c2ccc3c(N)n[nH]c3c2)cc(N2C[C@@H](C(=O)NC3CCCCC3)CC[C@H]2C)n1
Method in brief: as §1

encorafenib = compound: COC(=O)N[C@@H](C)CNc1nccc(-c2cn(C(C)C)nc2-c2cc(Cl)cc(NS(C)(=O)=O)c2F)n1 [encorafenib]
Method in brief: as §1

[3] = compound: COC(=O)[C@H](CCSC)NC(=O)C1=C(C=C(C=C1)NC[C@H](CS)N)C2=CC=CC=C2
Method in brief: as §1

alisertib = compound: COc1cc(Nc2ncc3c(n2)-c2ccc(Cl)cc2C(c2c(F)cccc2OC)=NC3)ccc1C(=O)O [alisertib]
Method in brief: as §1

[4] = compound: COc1cc2nc(-c3cc(F)ccc3O)nc(N[C@@H]3CNC[C@H]3C(C)(C)O)c2cc1OC
Method in brief: as §1

gefitinib = compound: COc1cc2ncnc(Nc3ccc(F)c(Cl)c3)c2cc1OCCCN1CCOCC1 [gefitinib]
Method in brief: as §1

lapatinib = compound: CS(=O)(=O)CCNCc1ccc(-c2ccc3ncnc(Nc4ccc(OCc5cccc(F)c5)c(Cl)c4)c3c2)o1 [lapatinib]
Method in brief: as §1

pictilisib = compound: CS(=O)(=O)N1CCN(Cc2cc3nc(-c4cccc5[nH]ncc45)nc(N4CCOCC4)c3s2)CC1 [pictilisib]
Method in brief: as §1

crizotinib = compound: C[C@@H](Oc1cc(-c2cnn(C3CCNCC3)c2)cnc1N)c1c(Cl)ccc(F)c1Cl [crizotinib]
Method in brief: as §1

[5] = compound: C[C@H](C1=CC=C(C=C1)C(=O)NC2=C3C=CNC3=NC=C2)N
Method in brief: as §1

duvelisib = compound: C[C@H](Nc1ncnc2nc[nH]c12)c1cc2cccc(Cl)c2c(=O)n1-c1ccccc1 [duvelisib]
Method in brief: as §1

gandotinib = compound: Cc1cc(Nc2cc(CN3CCOCC3)c3nc(C)c(Cc4ccc(Cl)cc4F)n3n2)n[nH]1 [gandotinib]
Method in brief: as §1

tozasertib = compound: Cc1cc(Nc2cc(N3CCN(C)CC3)nc(Sc3ccc(NC(=O)C4CC4)cc3)n2)n[nH]1 [tozasertib]
Method in brief: as §1

doramapimod = compound: Cc1ccc(-n2nc(C(C)(C)C)cc2NC(=O)Nc2ccc(OCCN3CCOCC3)c3ccccc23)cc1 [doramapimod]
Method in brief: as §1

bafetinib = compound: Cc1ccc(NC(=O)c2ccc(CN3CC[C@H](N(C)C)C3)c(C(F)(F)F)c2)cc1Nc1nccc(-c2cncnc2)n1 [bafetinib]
Method in brief: as §1

[6] = compound: Cc1cccc(CC(=O)N2CCc3c2ccc(-c2cn(C)c4ncnc(N)c24)c3F)n1
Method in brief: as §1

Target	log2 fold change (alvocidib)	log2 fold change (Tubastatin A)	log2 fold change [1]	log2 fold change (defactinib)	log2 fold change [2]	log2 fold change (encorafenib)	log2 fold change [3]	log2 fold change (alisertib)	log2 fold change [4]	log2 fold change (gefitinib)	log2 fold change (lapatinib)	log2 fold change (pictilisib)	log2 fold change (crizotinib)	log2 fold change [5]	log2 fold change (duvelisib)	log2 fold change (gandotinib)	log2 fold change (tozasertib)	log2 fold change (doramapimod)	log2 fold change (bafetinib)	log2 fold change [6]
HSPH1 (UniProt Q92598)	inactive: -0.007	inactive: -0.017	inactive: -0.01	inactive: 0	inactive: -0.037	inactive: -0.017	inactive: 0.071	inactive: -0.013	inactive: 0.006	inactive: -0.003	inactive: 0.017	inactive: 0.008	inactive: -0.008	inactive: -0.001	inactive: 0.011	inactive: -0.039	inactive: 0	inactive: 0.008	inactive: 0.015	inactive: 0.019
IKBIP (UniProt Q70UQ0)	inactive: -0.036	inactive: 0.015	inactive: 0.008	inactive: 0.011	inactive: -0.02	inactive: 0.02	inactive: 0.027	inactive: 0.093	inactive: 0.01	inactive: 0.042	inactive: -0.023	inactive: -0.018	inactive: 0.007	inactive: -0.061	inactive: 0.002	inactive: 0.016	inactive: 0.057	inactive: -0.052	inactive: -0.044	inactive: 0.03
ILVBL (UniProt A1L0T0)	inactive: -0.031	inactive: 0.087	inactive: -0.036	inactive: -0.007	inactive: 0.127	inactive: 0.008	inactive: 0.011	inactive: -0.025	inactive: 0.015	inactive: -0.047	inactive: 0.021	inactive: -0.036	inactive: -0.024	inactive: -0.07	inactive: 0.035	inactive: 0.041	inactive: 0.005	inactive: 0.012	inactive: 0.02	inactive: 0.032
IGBP1 (UniProt P78318)	inactive: -0.02	inactive: 0.001	inactive: 0.049	inactive: 0.018	inactive: 0.044	inactive: -0.019	inactive: -0.136	inactive: 0.007	inactive: -0.005	inactive: 0.022	inactive: 0.012	inactive: -0.013	inactive: 0.013	inactive: -0.144	inactive: 0.018	inactive: 0.021	inactive: -0.018	inactive: -0.006	inactive: 0.024	inactive: 0.014
IL27RA (UniProt Q6UWB1)	inactive: -0.058	inactive: -0.023	inactive: 0.128		inactive: -0.086	inactive: 0.03	inactive: 0.006	inactive: -0.109	inactive: 0.069	inactive: 0.062	inactive: 0.039	inactive: -0.052	inactive: 0.026	inactive: -0.017	inactive: 0	inactive: 0.031	inactive: 0.121	inactive: -0.074	inactive: 0.036	inactive: 0.075
IMPA2 (UniProt O14732)	inactive: -0.185	inactive: 0.041	inactive: -0.032	inactive: -0.174	inactive: -0.014	inactive: -0.027	inactive: 0.059		inactive: -0.09		inactive: 0.042	inactive: 0.059	inactive: 0.048	inactive: -0.11	inactive: -0.03	inactive: 0.11	inactive: 0.044	inactive: 0.038	inactive: -0.019	inactive: 0.046
IGF2BP2 (UniProt Q9Y6M1)	inactive: 0.016	inactive: -0.124	inactive: 0.043	inactive: -0.008	inactive: -0.014	inactive: 0.004	inactive: 0.201	inactive: 0.042	inactive: -0.005	inactive: 0.001	inactive: -0.034	inactive: -0.015	inactive: 0.012	inactive: -0.031	inactive: 0	inactive: 0.009	inactive: -0.011	inactive: 0.021	inactive: -0.093	inactive: 0.048
IMPACT (UniProt Q9P2X3)	inactive: 0.002	inactive: -0.04	inactive: -0.006	inactive: 0.013	inactive: -0.05	inactive: 0.063	inactive: -0.083	inactive: -0.024	inactive: -0.044	inactive: 0.167	inactive: 0.012	inactive: 0.044	inactive: 0.083	inactive: 0.077	inactive: -0.015	inactive: 0.065	inactive: 0.026	inactive: -0.044	inactive: -0.098	inactive: -0.096
ICAM4 isoform 3 (UniProt Q14773)	inactive: 0.024	inactive: 0.183	inactive: -0.078	inactive: 0.004	inactive: 0.472	inactive: 0.312	inactive: -0.022					inactive: -0.062		inactive: -0.003	inactive: 0.039	inactive: -0.013	inactive: -0.001		inactive: 0.004	inactive: 0.037
HYPK (UniProt Q9NX55)	inactive: -0.001	inactive: 0.063	inactive: 0.02	inactive: 0.036	inactive: 0.074	inactive: -0.008	inactive: -0.07	inactive: -0.089	inactive: 0.004	inactive: -0.093	inactive: -0.024	inactive: -0.081	inactive: 0.065	inactive: -0.006	inactive: 0.03	inactive: 0.001	inactive: 0.003	inactive: -0.059	inactive: 0.02	inactive: -0.016
INPPL1 (UniProt O15357)	inactive: -0.001	inactive: -0.177	inactive: 0.039	inactive: 0	inactive: -0.001	inactive: 0.009	inactive: 0.037	inactive: 0.036	inactive: -0.013	inactive: 0.01	inactive: 0.023	inactive: 0.006	inactive: -0.047	inactive: -0.05	inactive: -0.004	inactive: -0.065	inactive: 0.029	inactive: 0.01	inactive: -0.05	inactive: 0.03
ID1 (UniProt P41134)	inactive: -0.015	inactive: 0.027	inactive: 0.013	inactive: 0.014	inactive: 0			inactive: -0.065		inactive: -0.155		inactive: -0.031	inactive: 0.025	inactive: 0.091	inactive: -0.056	inactive: 0.017		inactive: -0.033	inactive: 0.063	inactive: -0.005
INTS12 (UniProt Q96CB8)	inactive: 0.026	inactive: -0.048	inactive: 0.096	inactive: 0.028	inactive: 0.009	inactive: 0.032	inactive: -0.1	inactive: -0.025	inactive: 0.069	inactive: -0.025	inactive: -0.084	inactive: 0.043	inactive: 0	inactive: 0.015	inactive: -0.062	inactive: -0.018	inactive: 0.013	inactive: 0.051	inactive: -0.16	inactive: -0.024
ING1 (UniProt Q9UK53)	inactive: 0.019	inactive: 0.025	inactive: 0.04		inactive: -0.025							inactive: -0.315	inactive: 0.035	inactive: -0.13	inactive: 0.048	inactive: 0.13		inactive: -0.079	inactive: 0.003	inactive: 0.027
IMPDH1 isoform 6 (UniProt P20839)	inactive: -0.009	active: -0.226	inactive: 0.002	inactive: -0.002	inactive: 0.018	inactive: -0.001	active: -0.478	inactive: 0.004	inactive: -0.002	inactive: 0.005	inactive: -0.001	inactive: 0.01	inactive: -0.021	inactive: -0.061	inactive: -0.013	inactive: 0.046	inactive: 0.014	inactive: 0.033	inactive: -0.037	inactive: 0.064
HSPA8 (UniProt E9PN89)	inactive: -0.248	inactive: 0.066	inactive: -0.074		inactive: -0.075	inactive: 0.088	inactive: 0.035	inactive: 0.11	inactive: 0.013	inactive: 0.076	inactive: 0.046	inactive: 0.05	inactive: -0.31	active: -0.706	inactive: 0.004	inactive: 0.169	inactive: 0.074	inactive: 0.314	inactive: -0.021	inactive: 0.299
IFRD2 isoform 2 (UniProt Q12894)	inactive: -0.034	inactive: 0.031	inactive: -0.043	inactive: -0.025	inactive: -0.002	inactive: 0.007	inactive: -0.027		inactive: 0.062		inactive: -0.075	inactive: 0.203	inactive: -0.04	inactive: -0.148	inactive: 0.047	inactive: 0.073	inactive: -0.034	inactive: -0.009	inactive: -0.076	inactive: 0.1

Some values from the results shown:
ICAM4 isoform 3 (UniProt Q14773) | log2 fold change (bafetinib): inactive: 0.004
IMPACT (UniProt Q9P2X3) | log2 fold change [3]: inactive: -0.083
